From publication PMC2680019
No constants are given. Whether binding was seen depends on the method and setting. In cells and extracts the contact can be indirect. For some of these results: A result given as binding can be weak or reduced; the word gives no strength. For some of these results: Tags and fused reporters may be left off the sequences shown.

Protein sequences, listed by entry. Tags and fused reporters are not part of them. Lines headed by an entry give the natural chain unless they say otherwise; changes in a name come on top. Residues count along the entry.
UniProt Q8IZW8: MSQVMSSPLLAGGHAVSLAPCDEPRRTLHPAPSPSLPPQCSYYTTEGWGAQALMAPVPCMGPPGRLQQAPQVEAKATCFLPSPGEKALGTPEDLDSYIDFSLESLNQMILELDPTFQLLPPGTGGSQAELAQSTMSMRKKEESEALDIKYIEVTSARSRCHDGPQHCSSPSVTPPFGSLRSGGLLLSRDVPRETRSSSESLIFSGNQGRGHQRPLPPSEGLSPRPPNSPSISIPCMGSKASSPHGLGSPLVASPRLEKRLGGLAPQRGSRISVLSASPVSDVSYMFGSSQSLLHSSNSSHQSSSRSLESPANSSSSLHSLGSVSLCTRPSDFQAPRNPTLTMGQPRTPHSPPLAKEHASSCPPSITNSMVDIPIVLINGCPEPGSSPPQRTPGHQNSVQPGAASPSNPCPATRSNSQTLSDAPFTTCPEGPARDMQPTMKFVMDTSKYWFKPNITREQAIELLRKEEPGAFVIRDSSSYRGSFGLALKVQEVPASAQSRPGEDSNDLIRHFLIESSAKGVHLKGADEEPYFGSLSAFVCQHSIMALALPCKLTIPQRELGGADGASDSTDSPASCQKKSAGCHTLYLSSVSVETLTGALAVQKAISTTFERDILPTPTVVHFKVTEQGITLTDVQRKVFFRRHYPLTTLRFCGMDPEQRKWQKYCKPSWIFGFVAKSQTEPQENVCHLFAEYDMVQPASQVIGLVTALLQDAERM
UniProt Q9HBL0, residues 1-1186: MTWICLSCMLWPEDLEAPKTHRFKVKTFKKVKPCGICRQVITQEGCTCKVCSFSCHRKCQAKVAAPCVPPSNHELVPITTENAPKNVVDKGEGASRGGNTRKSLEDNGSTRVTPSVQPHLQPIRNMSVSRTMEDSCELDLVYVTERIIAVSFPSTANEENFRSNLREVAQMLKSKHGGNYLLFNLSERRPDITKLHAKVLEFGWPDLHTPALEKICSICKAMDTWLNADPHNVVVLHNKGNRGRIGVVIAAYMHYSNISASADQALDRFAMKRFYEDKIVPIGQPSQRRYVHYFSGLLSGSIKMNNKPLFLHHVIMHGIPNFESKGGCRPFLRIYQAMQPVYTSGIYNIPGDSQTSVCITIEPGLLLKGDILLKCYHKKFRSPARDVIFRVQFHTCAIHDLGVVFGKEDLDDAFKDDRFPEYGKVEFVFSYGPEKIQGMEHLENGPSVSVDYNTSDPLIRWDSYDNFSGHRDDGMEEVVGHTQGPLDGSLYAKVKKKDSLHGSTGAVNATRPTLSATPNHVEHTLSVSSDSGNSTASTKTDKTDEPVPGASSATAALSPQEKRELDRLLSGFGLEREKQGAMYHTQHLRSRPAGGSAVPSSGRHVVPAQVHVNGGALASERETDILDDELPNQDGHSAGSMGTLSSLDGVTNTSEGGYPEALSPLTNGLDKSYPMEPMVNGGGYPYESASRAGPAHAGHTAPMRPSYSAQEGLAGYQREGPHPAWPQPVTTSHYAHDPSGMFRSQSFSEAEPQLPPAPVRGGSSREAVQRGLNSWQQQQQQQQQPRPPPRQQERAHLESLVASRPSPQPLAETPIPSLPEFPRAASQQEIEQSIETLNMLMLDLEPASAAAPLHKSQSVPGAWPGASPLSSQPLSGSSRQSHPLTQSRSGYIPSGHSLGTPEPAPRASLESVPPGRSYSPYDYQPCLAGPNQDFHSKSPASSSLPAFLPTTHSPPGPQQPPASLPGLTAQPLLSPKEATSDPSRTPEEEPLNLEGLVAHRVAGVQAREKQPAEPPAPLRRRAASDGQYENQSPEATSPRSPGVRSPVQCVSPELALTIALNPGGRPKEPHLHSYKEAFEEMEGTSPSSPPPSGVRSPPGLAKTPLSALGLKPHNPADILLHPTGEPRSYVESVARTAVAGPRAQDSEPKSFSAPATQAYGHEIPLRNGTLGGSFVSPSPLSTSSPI

Legend:
Test in all cases: co-IP; HEK293T co-transfected with Myc-tagged tensin and FLAG-tagged DLC1 (or GFP-tagged DLC2); cleared lysate in NET-N buffer (25 mM Tris-HCl pH 8.0, 50 mM NaCl, 0.2 mM EDTA, 0.1% NP40); anti-Myc antibody overnight at 4°C, protein-A sepharose, 5 washes; blot with anti-FLAG (anti-GFP for DLC2)
[1] = biological target: Myc-tagged C-terminal tensin-like (cten) (UniProt Q8IZW8)
[2] = biological target: Myc-tagged tensin1 N-terminus fragment 1-1186 (UniProt Q9HBL0)
[3] = biological target: T1, Myc-tagged Tensin2 R1165A (UniProt Q63HR2)
T1 sequence: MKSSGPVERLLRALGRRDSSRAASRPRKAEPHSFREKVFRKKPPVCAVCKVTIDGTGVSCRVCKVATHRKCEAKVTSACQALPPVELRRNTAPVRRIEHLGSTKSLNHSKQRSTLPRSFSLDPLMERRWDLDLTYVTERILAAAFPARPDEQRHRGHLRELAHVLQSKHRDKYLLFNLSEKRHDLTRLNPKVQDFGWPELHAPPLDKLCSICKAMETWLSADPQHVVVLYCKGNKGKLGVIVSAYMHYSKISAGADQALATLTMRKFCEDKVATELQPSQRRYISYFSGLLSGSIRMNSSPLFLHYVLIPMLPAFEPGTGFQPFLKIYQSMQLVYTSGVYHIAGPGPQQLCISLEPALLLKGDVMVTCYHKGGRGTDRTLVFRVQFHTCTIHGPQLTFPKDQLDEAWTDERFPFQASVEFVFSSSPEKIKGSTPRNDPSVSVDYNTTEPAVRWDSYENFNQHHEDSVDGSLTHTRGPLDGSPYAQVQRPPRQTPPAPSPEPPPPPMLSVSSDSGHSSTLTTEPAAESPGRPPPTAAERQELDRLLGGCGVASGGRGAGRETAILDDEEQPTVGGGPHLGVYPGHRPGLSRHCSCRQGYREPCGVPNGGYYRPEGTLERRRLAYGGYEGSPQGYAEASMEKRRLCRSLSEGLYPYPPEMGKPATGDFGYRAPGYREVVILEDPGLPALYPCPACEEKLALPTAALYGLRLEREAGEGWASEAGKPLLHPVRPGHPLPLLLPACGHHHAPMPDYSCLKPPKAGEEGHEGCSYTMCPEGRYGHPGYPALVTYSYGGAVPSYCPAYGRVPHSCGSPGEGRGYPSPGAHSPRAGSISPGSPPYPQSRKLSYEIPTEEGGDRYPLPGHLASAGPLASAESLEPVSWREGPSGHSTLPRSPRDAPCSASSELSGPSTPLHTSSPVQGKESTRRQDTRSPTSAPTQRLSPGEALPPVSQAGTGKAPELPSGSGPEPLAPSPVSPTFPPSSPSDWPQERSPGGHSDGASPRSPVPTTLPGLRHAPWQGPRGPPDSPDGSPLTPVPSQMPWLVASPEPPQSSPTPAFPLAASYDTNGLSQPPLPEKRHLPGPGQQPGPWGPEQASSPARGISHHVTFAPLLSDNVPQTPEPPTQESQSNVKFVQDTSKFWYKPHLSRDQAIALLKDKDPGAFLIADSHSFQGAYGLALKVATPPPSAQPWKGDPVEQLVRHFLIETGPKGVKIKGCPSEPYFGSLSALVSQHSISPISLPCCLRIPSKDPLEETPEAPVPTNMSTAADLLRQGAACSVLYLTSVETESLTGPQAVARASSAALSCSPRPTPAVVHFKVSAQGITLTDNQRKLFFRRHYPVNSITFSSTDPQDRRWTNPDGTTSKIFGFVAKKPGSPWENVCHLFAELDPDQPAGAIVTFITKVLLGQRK

[4] = biological target: T2, Myc-tagged Tensin2 1135-1409 (SH2-PTB) (UniProt Q63HR2)
T2 sequence: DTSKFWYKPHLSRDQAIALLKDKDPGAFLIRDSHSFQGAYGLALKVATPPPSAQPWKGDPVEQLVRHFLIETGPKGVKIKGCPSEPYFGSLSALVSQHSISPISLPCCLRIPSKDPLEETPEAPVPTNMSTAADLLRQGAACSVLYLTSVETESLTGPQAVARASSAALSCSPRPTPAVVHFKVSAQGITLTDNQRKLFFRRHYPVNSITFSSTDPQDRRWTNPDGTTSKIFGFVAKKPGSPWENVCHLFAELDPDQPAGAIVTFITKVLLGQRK

Q: How did the binding [1] turn out when “FLAG-tagged DLC1 FL (Deleted in liver cancer 1, wild-type) (from UniProt Q96QB1-1)” was run?
A: binds

Q: What about the binding [2] of the same substance?
A: no binding

Q: What about the binding [3] of the same substance?
A: binds

Q: What about the binding [4] of the same substance?
A: binds
